Data published in US20180020629A1.

What was measured:
cYFP-OsTON1b (rice) [1] = assay: BiFC, nYFP-GW7 co-transformed with cYFP-OsTON1b into Arabidopsis protoplasts
cYFP-OsTON2 (rice) [2] = assay: BiFC in Arabidopsis protoplasts (FIG. 2j)
cYFP-OsTON1b (rice) [3] = assay: BiFC in Arabidopsis protoplasts (FIG. 2j)
cYFP-OsTON2 (rice) [4] = assay: BiFC, nYFP-GW7 co-transformed with cYFP-OsTON2 into Arabidopsis protoplasts

Measured: binding

B1: nYFP-tagged GW7 (protein, not shown: small tags and cut ends)
chain: MPPARVLGGGGGGGGLGDEAPELERQMGCMAGIFQIFDRRQRLLTARRRRPPPKMLPPGPGHTLPRSSSNVAAQSSSTSKIVLEKTFSKSMTENSSLSIESSRASCSSSSCSSFSSLDGNKSIQQELPYINEQLFVQRPLKSSPSLKDPVMDTRSGQSNIGFRDIVKDSINRDTGGLTVKTSVKDARRNGQYKDSPRPLLLSKSMDGTYVIGIDRSTKVPANAVESSRRFPEQSRFSCDDRRLLRPVEAQENKKPSTRLKELPRLSLDSRKETLSSSSRQKTFSYRRTDDSLMDALRPQDSPGHRRASSVIAKLMGLEEAPNATGVLTVDSYEPERSPRPAEDTQKEHPVPSPRRFCQDPRESLPKDESPAMKTKPSPRILTESAPWRQQEKIATSSKASQCRDAEVRPRTASLYAYIERRGGGLEFLECNKDFRALRILEALHAKDAKRQNDGNGALTVAAQQAGDALNTSSRHFQPPIVVMKPARSTEKQPGVSLASVDPLAGFRNLRKLQARDAPCIGEHETSTNEKVHSRISRAQSKSDEPASRASSPRPTGSSSPRTVQRKAESERRSRPPVSPKSPSKKSSEAASPGGRTRTKPSQGKNHRDNEVSKSPRSRISMVKEIDISIMDFQKPLASTPSHKGTPSVLASDQKINSLENAPSPISVLDTSYYHTRLSYSFKDGETHSSEECWNPNSLPDTPQSKTSSEVSQIKPENFEALIQKLEQLQSMNDEVANKKDHQYIYEILLASGLLHKELSFVAMPGQAWPSSCLINPELFLILEQTKPDFASADQTVTKSSKANTEKLHRRIVFDLVNEITAQKMNIHCSASQSAKSLQLRKYNGWRLFKDLCTEVDRLQSESSAIKCSEEDGDERMLLVEDPLNGIEDWSFDSESPSTVLEIERLIYKDLIDEVIWDEATGKMQGGQWNLKRQLSFSSTS
binds: all assays above

These are yes or no findings as the source states them, for the method shown. Binding can be weak; no strength is given. Sequences can lack the tags named with a protein.
